Experimental data as given in ChEMBL document CHEMBL3046414, “Synthesis, anticancer, anti-HIV-1, and antimicrobial activity of some tricyclic triazino and triazolo[4,3-e]purine derivatives” (Med Chem Res, 2012).
Converted amounts (≈) assume the structure as drawn.

Tested on: Escherichia coli
Assay: Antimicrobial activity against Escherichia coli 5933 after 24 hr by two-fold serial dilution method
Type: functional
Conditions: Escherichia coli, 5933, 24 h

CC1(C)S[C@@H]2[C@H](NC(=O)[C@H](N)c3ccccc3)C(=O)N2[C@H]1C(=O)O [AMPICILLIN]
MIC: 10 µg/mL (≈ 28.6 µM)
